Experimental data from PubChem BioAssay AID2685 (National Center for Advancing Translational Sciences (NCATS), 2010).
The list shows a part of the results. The main result of the screen is listed elsewhere. These columns were measured beside it and carry no call. Most of these compounds were active or inconclusive in the main read-out, so they are no random draw. Words in brackets tell the shape of the fitted curve; partial curves, single points and poor fits give uncertain potencies.

Assay: qHTS Assay for Lipid Storage Modulators in Drosophila S3 Cells;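 for cell number change: cells counted by Cell Tracker Red CMTPX staining in the red channel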
Details: BODIPY lipid droplet fluorescence, 18-24 h; for cell number change: measured here: cell count max response, cells fed with added oleic acid
Outline: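 Drosophila S3 cells got compounds at several concentrations plus oleic acid (400 uM solution). Laser-scanning cytometry with 488 nm excitation read lipid droplets at 500-530 nm and cells at 575-640 nm. Percent activity was relative to 20 uM Triacsin C.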

[1] = measured here: cell number channel AC50, cells fed with added oleic acid
[2] = measured here: lipid fluorescence (Fed channel) AC50, cells fed with added oleic acid

With COc1ccc(CC(NC(C)=O)C(=O)NC2CCN(S(=O)(=O)c3cccc4ccccc34)CC2)cc1OC (stereo not given) the AC50 [1] was 1.84 µM [rising, partial curve].
With CCOC(=O)C1=C(c2ccccc2)NC(=O)NC1c1cc(OC)c(O)c([N+](=O)[O-])c1 (stereo not given) the cell number change was 20.1%.
For CCN(CC)S(=O)(=O)c1ccc(Cl)c(C(=O)NCC2CCCO2)c1 (stereo not given), the cell number change was 1.5% and the AC50 [2] was 0.0231 µM [falling, full curve, poor fit].
In the case of CCCc1nc(SCC(N)=O)[nH]c(=O)c1CC, the cell number change is reported as -10.8% and the AC50 [2] is reported as 2.59 µM [falling, full curve, poor fit].
In the case of COc1ccc(CC(=O)NCCC(C)C)cc1S(=O)(=O)N1CCOCC1, the AC50 [2] is reported as 0.58 µM [rising, full curve, poor fit].
With Cc1noc(C)c1S(=O)(=O)Nc1cccc(CO)c1 the cell number change was 33.5%, the AC50 [1] was 29.1 µM [rising, single point] and the AC50 [2] was 29.1 µM [rising, single point].
With O=c1oc2c(CN3CCCCC3)c(O)ccc2cc1-c1nc2ccccc2[nH]1 the cell number change was 19.6% and the AC50 [2] was 29.1 µM [rising, single point].
For CC(C)OC(=O)c1c(NS(=O)(=O)c2ccccc2)sc2c1CCCC2, the cell number change was 25.9% and the AC50 [2] was 14.6 µM [rising, partial curve, poor fit].
For Cn1nnc2cc(C(=O)N3CCC(c4ccccc4)C3)ccc21 (stereo not given), the cell number change was -18.7% and the AC50 [2] was 5.17 µM [falling, partial curve].
With CC[C@H](C)[C@H](NC(N)=O)C(=O)OCC(=O)NCc1ccc(Cl)cc1 the cell number change was -69.4%, the AC50 [1] was 29.1 µM [falling, single point] and the AC50 [2] was 29.1 µM [falling, single point].
For N#Cc1c(Nc2ccc(F)cc2)sc(C(=O)c2ccccc2)c1N, the cell number change was 20.2%.
With Cc1ccc(C(NC(=O)CN2C(=O)NC3(CCCC3)C2=O)c2ccccc2)cc1 (stereo not given) the cell number change was -5.7% and the AC50 [2] was 29.1 µM [falling, single point].
With Cc1nc2cc(N3CCOCC3)c(NC(=O)C3CC3)cc2c(=O)n1Cc1ccccc1 the cell number change was 78.5% and the AC50 [1] was 7.31 µM [rising, partial curve].
For CCOc1ccc(CCNC(=O)Cn2ccc3cc(S(=O)(=O)N4CCCC4)ccc32)cc1, the cell number change was -2.67% and the AC50 [2] was 4.11 µM [falling, single point].
For Cc1cc(C)c(S(=O)(=O)/N=C2\C=C(Nc3ccc(C(=O)O)cc3)C(=O)c3ccccc32)c(C)c1, the AC50 [2] was 0.82 µM [falling, full curve].
In the case of COc1ccc(-c2nnn(CC(=O)N(CC(=O)NC3CCCC3)c3cccc(C)c3)n2)cc1OC, the cell number change is reported as 16.4% and the AC50 [2] is reported as 13 µM [rising, partial curve].
Work on COc1ccc(-n2c(SCC(=O)Nc3nccs3)nc3c(c2=O)SC(C)C3)cc1 (stereo not given) yielded a cell number change of 0.94%.
CCN(CC)CCN1C(=O)C(=O)/C(=C(/O)c2c(C)[nH]c(C(=O)OC)c2C)C1c1cccc(OC)c1 (stereo not given) gave a cell number change of -22.4%.
For COc1ccc(CNC(=O)Cc2ccc(-c3ccccc3)cc2)cc1OC, the cell number change was 16.7% and the AC50 [2] was 6.51 µM [rising, single point].
For COc1ccc(CCNC(=O)C2CCN(C(=O)c3ccc(C(C)(C)C)cc3)CC2)cc1OC, the cell number change was 4.56% and the AC50 [2] was 29.1 µM [falling, single point].
In the case of O=C(c1cccs1)N1CCC(c2nc3c(nnn3Cc3ccccc3Cl)c(=O)[nH]2)CC1, the cell number change is reported as -9.21% and the AC50 [2] is reported as 5.62 µM [falling, single point].
For CCCN(CC(=O)Nc1ccc(F)c(F)c1F)C(=O)Cc1ccc(S(=O)(=O)N2CCOCC2)s1, the cell number change was 30.1%, the AC50 [1] was 0.00517 µM [rising, full curve, poor fit] and the AC50 [2] was 0.00461 µM [rising, full curve, poor fit].
In the case of CCCn1c(SCC(=O)Nc2nc3c(s2)CCCC3)nc2c1c(=O)n(C)c(=O)n2C, the cell number change is reported as 35.3%, the AC50 [1] is reported as 0.517 µM [rising, full curve] and the AC50 [2] is reported as 0.411 µM [rising, partial curve, poor fit].
Work on CC(=O)Nc1ccc(S(=O)(=O)Nc2ccccc2C(=O)N2CCCCCC2)cc1 yielded a cell number change of 6.76%.
Work on CCOc1ccc(C(C(=O)NCC2CCCO2)N(Cc2ccccc2)C(=O)c2snc(C(N)=O)c2N)cc1 (stereo not given) yielded a cell number change of -17.1%.
For CCOC(=O)c1nnn(-c2nonc2N)c1CN(C)C1CCCCC1, the cell number change was -7.73% and the AC50 [2] was 16.4 µM [rising, single point].
For COc1cc(C(=O)OCC(=O)Nc2ccccc2C(=O)NC2CC2)c([N+](=O)[O-])cc1OC, the cell number change was 23.4% and the AC50 [2] was 0.146 µM [falling, full curve].
For Cc1nc2c(sc(=S)n2Cc2ccco2)c(=O)n1CC(=O)Nc1ccccc1, the cell number change was 26.6%.
With Cn1c(OCc2ccco2)nc2c1c(=O)n(Cc1ccc(Cl)c(Cl)c1)c(=O)n2C the AC50 [1] was 6.51 µM [rising, single point].
For COc1cc(/C=N/NC(N)=O)cc(Br)c1OCc1ccc(C)cc1, the cell number change was 21.6%, the AC50 [1] was 2.91 µM [rising, single point] and the AC50 [2] was 0.116 µM [rising, full curve, poor fit].
In the case of O=[N+]([O-])c1ccc(CNc2cccc(Cl)c2)s1, the cell number change is reported as -6.76% and the AC50 [2] is reported as 29.1 µM [falling, single point].
With COc1ccc(-n2c(SCC(=O)N3CCOCC3)nc(O)cc2=O)cc1 the cell number change was 3.18%.
With CCN(C(=O)CSc1nc(C)nc2sc(C)c(C)c12)C1CCS(=O)(=O)C1 (stereo not given) the cell number change was -8.25%.
In the case of CC(C)N(C(=O)COC(=O)c1ccc(O)cc1)C(C)C, the cell number change is reported as -58.9%, the AC50 [1] is reported as 32.6 µM [falling, partial curve] and the AC50 [2] is reported as 25.9 µM [falling, partial curve, poor fit].
For Cc1ccc(NS(=O)(=O)c2ccc(-c3coc(C)n3)cc2)c(C)c1, the cell number change was -12.8% and the AC50 [2] was 0.184 µM [rising, full curve, poor fit].
With CCCNCc1cc(Br)ccc1OCC(=O)NCCc1ccccc1 the cell number change was -10.5% and the AC50 [2] was 0.731 µM [falling, partial curve, poor fit].
For CCC(=O)N1CCCc2cc(S(=O)(=O)N3CCN(c4ccccc4F)CC3)ccc21, the cell number change was -7.55%.
With COc1ccc(CN2CCN(Cc3ccon3)CC2CCO)c(C)c1C (stereo not given) the cell number change was 6.32% and the AC50 [2] was 0.731 µM [falling, full curve, poor fit].
For COc1cc(NC(=O)C2CCCN(S(=O)(=O)c3cnc[nH]3)C2)cc(OC)c1 (stereo not given), the cell number change was 10.8% and the AC50 [2] was 0.13 µM [rising, full curve, poor fit].
With C/C(=N\NC(=O)c1ccco1)c1ccc(C(=O)O)s1 the cell number change was -15.6% and the AC50 [2] was 0.116 µM [rising, full curve, poor fit].
With O=C(O)c1ccccc1C(=O)O the cell number change was 22.6% and the AC50 [2] was 0.0517 µM [rising, partial curve, poor fit].
With COc1ccc2[nH]c(C)c(C(=O)CN(C)CC3OCCO3)c2c1 the cell number change was 15.5%, the AC50 [1] was 0.326 µM [rising, partial curve, poor fit] and the AC50 [2] was 1.46 µM [rising, partial curve].
For C/C(=N/NC(=O)CN1CCN(S(=O)(=O)c2ccc(C)cc2)CC1)c1ccco1, the cell number change was 39.7%, the AC50 [1] was 29.1 µM [rising, single point] and the AC50 [2] was 32.6 µM [rising, single point].
For Cc1nc(-c2nnc(SCC(=O)Nc3ccc(C(F)(F)F)cc3)n2C)cs1, the cell number change was 24.3%.
For O=C(NNC(=O)c1cc2ccccc2oc1=O)c1ccccc1[N+](=O)[O-], the cell number change was 27.8% and the AC50 [2] was 0.708 µM [rising, full curve, poor fit].
Work on COc1ccc(CC(=O)OCC(=O)Nc2c(C)n(C)n(-c3ccccc3)c2=O)cc1 yielded a cell number change of 5.3%.
With CC1CCN(C(=O)COC(=O)c2n[nH]c(=O)c3ccccc23)CC1 the cell number change was 28.2% and the AC50 [2] was 0.517 µM [rising, full curve].
For CCNC(=S)N(CCCN(C)C)Cc1cc2cc3c(cc2[nH]c1=O)OCCO3, the cell number change was -6.2% and the AC50 [2] was 3.66 µM [rising, partial curve, poor fit].
With CC(C)(C)CC(=O)N1CCC(c2nc3c(nnn3Cc3c(F)cccc3Cl)c(=O)[nH]2)CC1 the cell number change was -12% and the AC50 [2] was 4.61 µM [rising, full curve].
With CC(C)(O)C#Cc1ccc(C(=O)N2CCN(c3ccc([N+](=O)[O-])cc3)CC2)cc1 the cell number change was 7.38% and the AC50 [2] was 0.00461 µM [rising, full curve, poor fit].
In the case of O=C(COC(=O)c1ccccc1OCC(=O)Nc1ccc(Br)cc1)Nc1ccccc1, the cell number change is reported as 5.33% and the AC50 [2] is reported as 2.59 µM [rising, single point].
For O=C(NNC(=S)Nc1ccc(Cl)cc1Cl)c1cccnc1, the cell number change was 3.55% and the AC50 [2] was 29.1 µM [rising, single point].
For COc1ccc(NC2CCCN(C(=O)c3cccc(C(F)(F)F)c3)C2)cc1OC (stereo not given), the cell number change was -10.7% and the AC50 [1] was 6.51 µM [falling, single point].
For N#Cc1c(NC(=O)CN2CCN(S(=O)(=O)c3ccc4c(c3)OCCO4)CC2)sc2c1CCC2, the cell number change was 15.2% and the AC50 [2] was 2.31 µM [falling, partial curve].
For c1coc(CNc2nc3ccccc3s2)c1, the cell number change was 25.6% and the AC50 [2] was 10.3 µM [rising, single point].
In the case of C/C(=N\NC(=O)c1ccccc1Cl)c1ccccn1, the cell number change is reported as -4.72% and the AC50 [2] is reported as 8.2 µM [falling, partial curve].
For COC(=O)Nc1cc([N+](=O)[O-])ccc1OC, the cell number change was 6.51%, the AC50 [1] was 4.11 µM [falling, partial curve, poor fit] and the AC50 [2] was 0.0651 µM [rising, full curve, poor fit].
In the case of CCC(C)(C)C1CCc2nc3ccccc3c(C(=O)OC(C)C(=O)Nc3c(C)n(C)n(-c4ccccc4)c3=O)c2C1 (stereo not given), the cell number change is reported as 13%, the AC50 [1] is reported as 0.461 µM [falling, single point] and the AC50 [2] is reported as 0.731 µM [falling, single point].
